The target of this assay is T1, NADPH-thioredoxin reductase (NTRC) (Arabidopsis thaliana (endogenous in leaves)) (UniProt O22229).
T1 sequence: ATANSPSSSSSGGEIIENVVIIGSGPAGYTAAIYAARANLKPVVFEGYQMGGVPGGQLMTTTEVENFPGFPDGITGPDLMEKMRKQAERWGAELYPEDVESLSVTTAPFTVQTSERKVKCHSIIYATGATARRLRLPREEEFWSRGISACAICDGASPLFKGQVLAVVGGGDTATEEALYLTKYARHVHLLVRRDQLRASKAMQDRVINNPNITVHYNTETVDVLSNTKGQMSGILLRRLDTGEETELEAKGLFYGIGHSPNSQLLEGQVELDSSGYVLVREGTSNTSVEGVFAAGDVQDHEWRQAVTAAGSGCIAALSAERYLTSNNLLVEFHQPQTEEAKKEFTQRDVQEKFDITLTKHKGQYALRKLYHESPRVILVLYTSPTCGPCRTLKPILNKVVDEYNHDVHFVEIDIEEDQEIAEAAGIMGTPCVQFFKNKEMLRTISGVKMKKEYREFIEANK
Briefly: affinity purification with mass spectrometry; Co-IP from WT, ntrc and OE-NTRC total leaf extracts (Pierce IP Lysis buffer, 1% NP-40) on a resin with affinity-purified NTRC-specific antibody (Pierce Co-IP kit); eluates analysed by MS; hits: at least two unique peptides in WT/OE-NTRC eluates and absent from ntrc eluates.

Sequences of proteins named here, by UniProt entry; tags and fusion partners are left off. Residues count along the entry.
UniProt Q9S9N6, residues 45-461: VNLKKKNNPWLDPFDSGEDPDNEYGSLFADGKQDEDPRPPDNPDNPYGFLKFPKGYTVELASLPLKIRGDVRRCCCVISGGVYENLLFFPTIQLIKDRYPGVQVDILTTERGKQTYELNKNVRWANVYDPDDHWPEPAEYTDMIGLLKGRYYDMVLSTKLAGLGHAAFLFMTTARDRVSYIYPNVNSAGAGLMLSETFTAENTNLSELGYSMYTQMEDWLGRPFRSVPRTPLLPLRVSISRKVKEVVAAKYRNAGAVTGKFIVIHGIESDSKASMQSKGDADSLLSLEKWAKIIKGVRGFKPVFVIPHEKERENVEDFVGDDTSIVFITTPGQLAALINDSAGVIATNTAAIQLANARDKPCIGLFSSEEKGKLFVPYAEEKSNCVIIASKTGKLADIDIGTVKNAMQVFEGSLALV
UniProt P56753: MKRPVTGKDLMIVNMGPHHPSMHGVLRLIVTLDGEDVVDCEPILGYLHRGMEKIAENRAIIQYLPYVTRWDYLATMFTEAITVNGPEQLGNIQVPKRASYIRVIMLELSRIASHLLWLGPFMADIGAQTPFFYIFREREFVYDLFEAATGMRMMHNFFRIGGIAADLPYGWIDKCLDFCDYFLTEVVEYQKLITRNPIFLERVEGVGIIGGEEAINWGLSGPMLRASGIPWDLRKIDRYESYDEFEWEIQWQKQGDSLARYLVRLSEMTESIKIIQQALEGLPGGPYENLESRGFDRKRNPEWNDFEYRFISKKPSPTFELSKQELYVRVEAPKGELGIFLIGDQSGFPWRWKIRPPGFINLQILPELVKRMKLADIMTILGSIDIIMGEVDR

Results are given in words; binding and its absence hold for the method and conditions named. Binding seen in cells or lysates may run through a third protein. Here binding means that the protein was enriched with, or labelled near, the bait; the list need not be complete.

Four molecules from paper PMC6508795 can be followed below.

For the molecule “Ndh48 (NDF1) (from UniProt Q9S9N6 45-461)”, the binding result is “binds”.
Take NdhH (from UniProt P56753 1-393): the binding result is “binds”.

B1: PROTON GRADIENT REGULATION 5 (PGR5) (protein, UniProt Q9SL05 61-133)
chain: KNVNEGKGLFAPLVVVTRNLVGKKRFNQLRGKAIALHSQVITEFCKSIGADAKQRQGLIRLAKKNGERLGFLA
For B1, the binding entry was “binds”.

B2: NdhS (CRR31) (protein, UniProt Q9T0A4 49-250)
chain: AMGKFNLWEVMGGRGLCNGEKGIEKELQRNIEDEQETSKAENNETERESDDSNLSFKVPEDGFEKEMMGLTGGFPGGEKGLKTFIEKNPPPPPPPPPAKQGSDASAVATDKKPKAPKLPLLMPGMIAIVKNQNSPYHMYCGIVQRITDGKAGVLFEGGNWDRLITFRLEELERREKGPPGKNPKSCILEPLIEQMQKEEAAP
For the molecule B2, the binding result is listed as “binds”.
